# Measured values from PubChem BioAssay AID504444 (National Center for Advancing Translational Sciences (NCATS), 2011).
# In all, about 360,000 compounds went through this assay and about 7,500 (2.1%) were called active. The shares of active, inactive and inconclusive entries below differ from those in the screen. Calls come from the whole dose curve; as a rule, active = well fitted inhibition curve with a large enough effect; inconclusive = small, poorly fitted or top-dose-only effect, or effect the other way; inactive = flat fitted curve, though single readings scatter. A potency beside an inconclusive call is a rough fit, not a confirmed value.
# Assay: Nrf2 qHTS screen for inhibitors; note: nearly all actives have a fitted effect of over 60% in size
# Settings: A549 ARE-Fluc reporter, luciferase luminescence, 18-24 h; series mostly up to 46 µM
# Procedure, shortened: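 Two sequential reads on A549 ARE_Fluc cells exposed to compound for 18-24 h: a CellTiter-Fluor fluorescence read for viability, then a luciferase luminescence read for Nrf2/ARE activity.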
# Potency is the fitted concentration of half-maximal effect.
row,SMILES,Potency
1,O=C1NC(=S)SC1=Cc1ccc2c(c1)OCO2,"inconclusive: 29.1 µM [activator, single point]"
2,N/C(=N\OC(=O)c1ccccc1[N+](=O)[O-])c1cccnc1,"inconclusive: 25.9 µM [activator, partial curve, poor fit]"
3,CCOC(=O)CNc1nc(Oc2ccc(=O)n(C)n2)nc(N(CC)CC)n1,"inconclusive: 32.6 µM [falling, single point]"
4,CC1CCCN(S(=O)(=O)c2ccc(NC(=O)c3cccc(-n4cnnn4)c3)cc2)C1 (stereo unspecified),"inconclusive: 29.1 µM [falling, single point]"
5,O=C(NC(=S)N1CCOCC1)c1cc2ccccc2o1,"inconclusive: 23.1 µM [activator, partial curve, poor fit]"
6,Cc1cc(N/N=C/c2ccccc2[N+](=O)[O-])nc(-n2nc(C)cc2C)n1,"inconclusive: 29.1 µM [falling, single point]"
7,C/C(=N/N=C(\C)c1ccccc1O)c1ccccc1O,"inconclusive: 16.4 µM [activator, partial curve]"
8,CCOc1ccc(NC(=O)COc2ccc(OC)cc2)cc1,"inconclusive: 29.1 µM [falling, single point]"
9,COc1cc(C2c3cc4c(cc3OC(C)(N3CCCC3)C2C)OCO4)cc(OC)c1OC (stereo unspecified),inactive
10,COc1cc2c(cc1NC(=O)c1ccc3c(c1)OCO3)oc1ccccc12,"inconclusive: 4.11 µM [activator, partial curve]"
11,Cc1ccc(C(=O)NC(=S)NCC2CCCO2)cc1Br (stereo unspecified),"inconclusive: 9.2 µM [activator, partial curve, poor fit]"
12,Cc1ccccc1Cn1ccc(NC(=O)c2nn(C)cc2[N+](=O)[O-])n1,inactive
13,Cn1c(/C=C/c2ccc(Br)cc2)nc2ccccc2c1=O,"inconclusive: 7.31 µM [activator, partial curve]"
14,O=C(Nc1cccc(O)c1)c1cc(-c2ccccc2Cl)on1,"inconclusive: 18.4 µM [falling, partial curve, poor fit]"
15,COCCN(C(=O)COC(=O)/C=C/c1ccc2ccccc2n1)c1c(N)n(Cc2ccccc2)c(=O)[nH]c1=O,inactive
16,Cc1sc2nc(SCc3nc(-c4cccs4)no3)n(-c3ccccc3)c(=O)c2c1C,"inconclusive: 1.03 µM [falling, full curve]"
17,O=C(Nc1ccccc1)c1ccc(OC(=O)c2ccccc2)cc1,"inconclusive: 29.1 µM [activator, single point]"
18,CCOc1ccc2oc(C(=O)Nc3ccc(N4CCOCC4)cc3)c(C)c2c1,"inconclusive: 32.6 µM [falling, partial curve, poor fit]"
19,CCN(CC)S(=O)(=O)c1ccc(NC(=O)NCc2noc3ccc(C)cc23)cc1,active: 18.4 µM
20,CCOC(=O)Cc1csc(NS(=O)(=O)c2ccc(SC)cc2)n1,"inconclusive: 8.2 µM [falling, partial curve, poor fit]"
21,COC(=O)c1c(C)oc2c1cc(NS(=O)(=O)c1cccs1)c1ccccc12,"inconclusive: 18.4 µM [falling, partial curve, poor fit]"

# Nine entries out of the list, sorted by length of the SMILES, descending.
row,SMILES,Potency
4,CC1CCCN(S(=O)(=O)c2ccc(NC(=O)c3cccc(-n4cnnn4)c3)cc2)C1 (stereo unspecified),"inconclusive: 29.1 µM [falling, single point]"
9,COc1cc(C2c3cc4c(cc3OC(C)(N3CCCC3)C2C)OCO4)cc(OC)c1OC (stereo unspecified),inactive
3,CCOC(=O)CNc1nc(Oc2ccc(=O)n(C)n2)nc(N(CC)CC)n1,"inconclusive: 32.6 µM [falling, single point]"
10,COc1cc2c(cc1NC(=O)c1ccc3c(c1)OCO3)oc1ccccc12,"inconclusive: 4.11 µM [activator, partial curve]"
2,N/C(=N\OC(=O)c1ccccc1[N+](=O)[O-])c1cccnc1,"inconclusive: 25.9 µM [activator, partial curve, poor fit]"
14,O=C(Nc1cccc(O)c1)c1cc(-c2ccccc2Cl)on1,"inconclusive: 18.4 µM [falling, partial curve, poor fit]"
8,CCOc1ccc(NC(=O)COc2ccc(OC)cc2)cc1,"inconclusive: 29.1 µM [falling, single point]"
5,O=C(NC(=S)N1CCOCC1)c1cc2ccccc2o1,"inconclusive: 23.1 µM [activator, partial curve, poor fit]"
1,O=C1NC(=S)SC1=Cc1ccc2c(c1)OCO2,"inconclusive: 29.1 µM [activator, single point]"

# (continued)

row,SMILES,Potency
1,O=C1[C@@H]2[C@@H]3C[C@@H]([C@H]4ON=C(c5ccc(Cl)cc5)[C@@H]34)[C@@H]2C(=O)N1C1CCCCC1,"inconclusive: 16.4 µM [falling, partial curve, poor fit]"
2,COn1c(-c2ccccc2)nc2ccc(Cl)cc21,"inconclusive: 14.6 µM [activator, partial curve]"
3,C/C(=C\C=C(C#N)C#N)c1cc(C#N)c(N)o1,"inconclusive: 2.59 µM [falling, partial curve, poor fit]"
4,CCc1ccc(NC(=O)CCC(=O)Nc2nnc(C(C)C)s2)cc1,inactive
5,COc1ccc(Cn2cccc(NC(=O)Nc3ccc(F)cc3)c2=O)cc1,"inconclusive: 18.4 µM [falling, single point]"
6,OC1CCN(C(=S)Nc2ccc(Nc3ccccc3)cc2)CC1,"inconclusive: 29.1 µM [activator, single point]"
7,COc1ccccc1C(=O)CC(=O)C(=O)Nc1cccc([N+](=O)[O-])c1C,"inconclusive: 29.1 µM [falling, single point]"
8,O=S(=O)(Nc1ccc2nc(C(F)(F)F)[nH]c2c1)c1ccccc1,"inconclusive: 14.6 µM [falling, partial curve, poor fit]"
9,O=C(Nc1ccc(Br)cc1)c1cnc[nH]1,"inconclusive: 3.66 µM [activator, full curve]"
10,O=C(Nc1ccccc1F)Nc1ccccc1N1CCCCC1,active: 5.8 µM
11,O=C(CN1C(=O)c2ccccc2S1(=O)=O)c1ccc2c(c1)OCCO2,active: 0.0731 µM
12,CCOC(=O)N1CCN(C(=O)c2cccn3c(=O)c4sccc4nc23)CC1,inactive
13,Cc1ccc[n+](CC(=O)c2cc3ccccc3oc2=O)c1,"inconclusive: 29.1 µM [activator, single point]"
14,Cc1cccc(NC(=S)NC(=O)c2ccc(Br)o2)c1,"inconclusive: 18.4 µM [activator, partial curve]"
15,CN(C(=O)c1cccc(NC(=O)Cc2ccc(NC(=O)C3CCN(C(=O)C4CCCC4)CC3)cc2)c1)C1CCCCC1,"inconclusive: 1.84 µM [activator, partial curve, poor fit]"
16,O=C(COC(=O)Cc1ccc(S(=O)(=O)N2CCCCC2)s1)Nc1ccc2c(c1)OCO2,"inconclusive: 23.1 µM [activator, partial curve, poor fit]"
17,COc1cc(C(=O)NCc2ccncc2)cc(Br)c1OCc1ccccc1,"inconclusive: 29.1 µM [falling, single point]"
18,Cc1nn(Cc2c(F)c(F)c(F)c(F)c2F)c(C)c1NC(=O)c1nn(C)cc1[N+](=O)[O-],"inconclusive: 29.1 µM [falling, single point]"
19,Cc1ccc2onc(CC(=O)N3CCN(c4ccc(F)cc4)CC3)c2c1,active: 16.4 µM
20,CCCCOC(=O)c1ccc(NC(=S)NC(=O)c2c(Br)c(C)nn2C)cc1,"inconclusive: 0.206 µM [falling, full curve]"
